# In patent publication US20090076006A1, “HSP90 INHIBITORS CONTAINING A ZINC BINDING MOIETY” (priority 2007, published 2009):
# At least one structure is not confirmed: it was looked up by name or label, or the drawing left a doubt.
# System: HDAC (HeLa nuclear extract)
# Experiment: HDAC fluorimetric assay (inhibition of HDAC enzymatic activity)
# Format: biochemical
# Conditions: HDAC fluorimetric assay kit
# Experimental: (c) An In Vitro Assay which Determines the Ability of a Test Compound to Inhibit HDAC Enzymatic Activity.
# HDAC inhibitors were screened using an HDAC fluorimetric assay kit (AK-500, Biomol, Plymouth Meeting, Pa.). Test compounds were dissolved in dimethylsulphoxide (DMSO) to give a 20 mM working stock concentration. Fluorescence was measured on a WALLAC Victor 2 plate reader and reported as relative fluorescence units (RFU). Data were plotted using GraphPad Prism (v4.0a) and IC50's calculated using a sigmoidal dose response curve fitting algorithm. Each assay was setup as follows: Defrosted all kit components and kept on ice until use. Diluted HeLa nuclear extract 1:29 in Assay Buffer (50 mM Tris/Cl, pH 8.0, 137 mM NaCl, 2.7 mM KCl, 1 mM MgCl2). […] Allowed diluted Fluor de Lys™ Substrate and the samples in the microtiter plate to equilibrate to assay temperature (e.g. 25 or 37° C. Initiated HDAC reactions by adding diluted substrate (25 μl) to each well and mixing thoroughly. Allowed HDAC reactions to proceed for 1 hour and then stopped them by addition of Fluor de Lys™ Developer (50 μl). Incubated plate at room temperature (25° C.) for 10-15 min. Read samples in a microtiter-plate reading fluorimeter capable of excitation at a wavelength in the range 350-380 nm and detection of emitted light in the range 440-460 nm.
smiles,measurement,value
"CC(C)c1cc(-c2onc(C(=O)NCCCC(=O)NO)c2-c2ccc(CN3CCOCC3)cc2)c(O)cc1O [Compound 25, 5-(2,4-Dihydroxy-5-isopropylphenyl)-N-(4-(hydroxyamino)-4-oxobutyl)-4-(4-(morpholinomethyl)phenyl)isoxazole-3-carboxamide]",IC50,1 to 10 µM
